{"source": "patent US20080124780A1", "about": "“Hybrid immobilized catalytic system with controlled permeability” (NORTHEASTERN UNIVERSITY, priority 2002, published 2008)", "system": "Horseradish peroxidase (HRP)", "experiment": "Loading efficiency of HRP into Ca^2+-alginate beads (OPD assay)", "settings": "10 μg/ml HRP"}
{"substance": "Horseradish peroxidase [HRP]", "values": [{"measurement": "HRP entrapped (loading efficiency)", "setting": "beads cross-linked for 5 minutes", "value": "approximately 100%"}, {"measurement": "HRP entrapped (loading efficiency)", "setting": "beads cross-linked for 45 minutes", "value": 42.8, "unit": "%"}]}
